Measurements taken from patent US20160002297A1, “THERAPEUTIC AGENTS” (NATIONAL UNIVERSITY OF SINGAPORE, priority 2013, published 2016).
These are yes or no findings as the source states them, for the method shown. For some of these results: Binding seen in cells or lysates may run through a third protein. Some results given as binding are weak or reduced against the parent protein; the word gives no strength.

Amino acid sequences for entries named in this document (tags omitted). Residues count along the entry.
UniProt P11021, residues 19-654: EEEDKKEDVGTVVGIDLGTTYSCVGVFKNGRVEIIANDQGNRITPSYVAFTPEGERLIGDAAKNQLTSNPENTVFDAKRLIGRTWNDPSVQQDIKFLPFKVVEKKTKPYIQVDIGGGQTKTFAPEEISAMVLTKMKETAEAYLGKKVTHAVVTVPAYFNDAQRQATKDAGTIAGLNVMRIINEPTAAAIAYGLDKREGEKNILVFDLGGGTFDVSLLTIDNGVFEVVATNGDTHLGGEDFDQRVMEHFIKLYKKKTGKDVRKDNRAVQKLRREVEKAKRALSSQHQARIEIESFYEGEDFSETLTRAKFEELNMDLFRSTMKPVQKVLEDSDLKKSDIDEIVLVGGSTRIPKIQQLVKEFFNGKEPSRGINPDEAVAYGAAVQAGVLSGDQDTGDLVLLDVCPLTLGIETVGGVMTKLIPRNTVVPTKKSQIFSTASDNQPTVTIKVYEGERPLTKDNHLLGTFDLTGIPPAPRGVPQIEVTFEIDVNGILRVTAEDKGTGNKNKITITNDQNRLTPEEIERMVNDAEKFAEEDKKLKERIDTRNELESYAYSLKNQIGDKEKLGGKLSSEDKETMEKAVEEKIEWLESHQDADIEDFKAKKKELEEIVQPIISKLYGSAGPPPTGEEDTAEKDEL

Columns and labels:
[1] = biological target: T1, GRP78, purified recombinant protein (UniProt P11021 19-654, limits assumed); test: ELISA solid phase-binding assay
T1 construct: also called glucose-regulated protein 78 kDa; BiP

[2] = biological target: Cell-surface GRP78 in the plasma membrane fraction of HUVECs (human) (UniProt P11021); test: co-immunoprecipitation with anti-FITC antibody
[3] = biological target: Cell-surface GRP78 in the plasma membrane fraction of HUVECs (human) (UniProt P11021); test: co-immunoprecipitation

binding [1] | binding [2] | binding [3] | Binder
binds | – | – | CRAAC (Disulfide bridge: 1-5) [Cyclic RAA peptide (cRAA)]
– | binds | binds | CRKDC (FITC at the N-terminus (FITC-CRKDC); Disulfide bridge: 1-5) [FITC-labelled cRKD (FITC-RKD)]
binds | – | – | CRKDC (Disulfide bridge: 1-5) [Cyclic CRKDC peptide (cRKD)]
